# US6482802B1 (Endowment for Research in Human Biology, Inc., priority 1998, dated 2002)
# Test system: nuclear translocation of 125I-angiogenin in HUVE cells
# Assay: Nuclear translocation of 125I-angiogenin in HUVE cells
# Settings: Homo sapiens, 0.5 h, read-out: % inhibition of nuclear translocation of angiogenin
compound,measurement,value
"CN[C@@H]1C[C@H]2O[C@@](C)([C@@H]1OC)n1c3ccccc3c3c4c(c5c6ccccc6n2c5c31)C(=O)NC4 [Staurosporine, staurosporine]",inhibition at 0.1 µM,12%
